Data on one molecule can be found in PMC8989540.

Chains of the proteins cited; added tags and fusions are not shown.
UniProt Q3URK3: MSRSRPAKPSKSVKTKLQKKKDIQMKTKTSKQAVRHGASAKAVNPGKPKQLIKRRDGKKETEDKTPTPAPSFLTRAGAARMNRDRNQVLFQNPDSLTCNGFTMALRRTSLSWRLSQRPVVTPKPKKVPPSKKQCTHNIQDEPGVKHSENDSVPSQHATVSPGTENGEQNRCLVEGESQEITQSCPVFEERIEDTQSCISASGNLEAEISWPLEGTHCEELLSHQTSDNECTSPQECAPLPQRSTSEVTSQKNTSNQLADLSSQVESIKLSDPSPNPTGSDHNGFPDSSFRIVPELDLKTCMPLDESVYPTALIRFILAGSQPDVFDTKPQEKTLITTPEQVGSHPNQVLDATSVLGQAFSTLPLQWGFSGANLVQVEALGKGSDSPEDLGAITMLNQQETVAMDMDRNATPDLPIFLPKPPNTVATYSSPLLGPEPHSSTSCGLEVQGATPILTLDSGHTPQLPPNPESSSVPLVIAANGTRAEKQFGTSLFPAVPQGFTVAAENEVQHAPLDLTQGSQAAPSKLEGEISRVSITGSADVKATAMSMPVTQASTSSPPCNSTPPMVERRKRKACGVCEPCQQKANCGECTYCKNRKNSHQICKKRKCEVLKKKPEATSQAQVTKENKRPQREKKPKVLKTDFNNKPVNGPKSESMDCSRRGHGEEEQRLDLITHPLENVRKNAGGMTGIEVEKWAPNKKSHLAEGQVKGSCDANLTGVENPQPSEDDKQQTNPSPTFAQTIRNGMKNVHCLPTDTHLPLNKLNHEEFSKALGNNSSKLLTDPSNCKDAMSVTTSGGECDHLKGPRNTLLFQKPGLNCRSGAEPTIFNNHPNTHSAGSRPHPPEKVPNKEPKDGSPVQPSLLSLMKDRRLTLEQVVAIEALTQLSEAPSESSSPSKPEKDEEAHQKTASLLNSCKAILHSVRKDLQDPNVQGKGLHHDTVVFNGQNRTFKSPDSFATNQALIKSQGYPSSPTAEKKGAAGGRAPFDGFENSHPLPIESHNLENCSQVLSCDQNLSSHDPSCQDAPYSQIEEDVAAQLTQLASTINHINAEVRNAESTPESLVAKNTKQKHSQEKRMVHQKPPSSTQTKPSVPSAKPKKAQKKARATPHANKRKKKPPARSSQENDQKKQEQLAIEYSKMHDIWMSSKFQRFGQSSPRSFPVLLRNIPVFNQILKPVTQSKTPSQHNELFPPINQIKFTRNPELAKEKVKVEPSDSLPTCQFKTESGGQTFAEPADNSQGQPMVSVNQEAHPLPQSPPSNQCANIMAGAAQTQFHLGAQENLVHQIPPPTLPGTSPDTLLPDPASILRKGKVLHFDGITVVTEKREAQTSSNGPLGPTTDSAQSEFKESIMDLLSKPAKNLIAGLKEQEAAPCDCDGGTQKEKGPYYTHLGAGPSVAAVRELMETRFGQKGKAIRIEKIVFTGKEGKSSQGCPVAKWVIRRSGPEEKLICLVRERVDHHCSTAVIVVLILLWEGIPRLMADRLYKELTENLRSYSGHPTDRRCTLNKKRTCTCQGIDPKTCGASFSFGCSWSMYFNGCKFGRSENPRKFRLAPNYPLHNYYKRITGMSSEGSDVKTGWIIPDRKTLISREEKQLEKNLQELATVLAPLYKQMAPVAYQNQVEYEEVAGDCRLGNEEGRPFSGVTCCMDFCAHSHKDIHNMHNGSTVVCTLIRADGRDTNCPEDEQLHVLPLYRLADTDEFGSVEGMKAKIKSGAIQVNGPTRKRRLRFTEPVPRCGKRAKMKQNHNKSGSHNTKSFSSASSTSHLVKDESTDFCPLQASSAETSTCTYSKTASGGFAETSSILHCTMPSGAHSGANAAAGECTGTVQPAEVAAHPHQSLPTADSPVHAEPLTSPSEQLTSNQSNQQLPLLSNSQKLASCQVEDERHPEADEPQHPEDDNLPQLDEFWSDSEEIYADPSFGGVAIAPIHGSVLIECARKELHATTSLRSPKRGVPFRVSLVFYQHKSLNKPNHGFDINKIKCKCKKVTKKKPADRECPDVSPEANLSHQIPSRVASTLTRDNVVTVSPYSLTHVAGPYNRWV

These are yes or no findings as the source states them, for the method shown. In cells and extracts the contact can be indirect. Some results given as binding are weak or reduced against the parent protein; the word gives no strength.

The assay has as its target Tet1 (wild type, endogenous in Tet1+/+ ESCs) (mouse (endogenous in V6.5 ESCs)) (UniProt Q3URK3). Put plainly: co-IP; ESC nuclear extracts treated with benzonase; anti-Tet1 antibody crosslinked to Protein G magnetic beads, overnight 4°C; washes 20 mM HEPES pH 7.6, 10% glycerol, 100 mM KCl, 1.5 mM MgCl2, 0.2 mM EDTA; western blot; Tet1-/- ESCs as negative control. Background: In western blotting, separated proteins are transferred to a membrane and probed.

B1: Sin3a (endogenous in mouse ESCs) (protein, UniProt Q60520 1-1274)
chain: MKRRLDDQESPVYAAQQRRIPGSTEAFSHQHRVLAPAPPVYEAVSETMQSATGIQYSVAPNYQVSAVPQSSGSHGPAIAAVHSSHHHPTAVQPHGGQVVQSHAHPAPPVAPVQGQQQFQRLKVEDALSYLDQVKLQFGSQPQVYNDFLDIMKEFKSQSIDTPGVISRVSQLFKGHPDLIMGFNTFLPPGYKIEVQTNDMVNVTTPGQVHQIPTHGIQPQPQPPPQHPSQPSSQSAPTPAQPAPQPTAAKVSKPSQLQAHTPASQQTPPLPPYASPRSPPVQPHTPVTISLGTAPSLQNNQPVEFNHAINYVNKIKNRFQGQPDIYKAFLEILHTYQKEQRNAKEAGGNYTPALTEQEVYAQVARLFKNQEDLLSEFGQFLPDANSSVLLSKTTAEKVDSVRNDHGGTVKKPQLNNKPQRPSQNGCQIRRHSGTGATPPVKKKPKLMSLKESSMADASKHGVGTESLFFDKVRKALRSAEAYENFLRCLVIFNQEVISRAELVQLVSPFLGKFPELFNWFKNFLGYKESVHLESFPKERATEGIAMEIDYASCKRLGSSYRALPKSYQQPKCTGRTPLCKEVLNDTWVSFPSWSEDSTFVSSKKTQYEEHIYRCEDERFELDVVLETNLATIRVLEAIQKKLSRLSAEEQAKFRLDNTLGGTSEVIHRKALQRIYADKAADIIDGLRKNPSIAVPIVLKRLKMKEEEWREAQRGFNKVWREQNEKYYLKSLDHQGINFKQNDTKVLRSKSLLNEIESIYDERQEQATEENAGVPVGPHLSLAYEDKQILEDAAALIIHHVKRQTGIQKEDKYKIKQIMHHFIPDLLFAQRGDLSDVEEEEEEEMDVDEATGAPKKHNGVGGSPPKSKLLFSNTAAQKLRGMDEVYNLFYVNNNWYIFMRLHQILCLRLLRICSQAERQIEEENREREWEREVLGIKRDKSDSPAIQLRLKEPMDVDVEDYYPAFLDMVRSLLDGNIDSSQYEDSLREMFTIHAYIAFTMDKLIQSIVRQLQHIVSDEVCVQVTDLYLAENNNGATGGQLNSQTSRSLLESAYQRKAEQLMSDENCFKLMFIQSQGQVQLTVELLDTEEENSDDPVEAERWSDYVERYMSSDTTSPELREHLAQKPVFLPRNLRRIRKCQRGREQQEKEGKEGNSKKTMENVESLDKLECRFKLNSYKMVYVIKSEDYMYRRTALLRAHQSHERVSKRLHQRFQAWVDKWTKEHVPREMAAETSKWLMGEGLEGLVPCTTTCDTETLHFVSINKYRVKYGTVFKAP
For the molecule B1, the binding entry is recorded as “binds”.
